## Library screen at single concentrations

The chains behind the UniProt entries cited, without tags or fusion partners.
UniProt P9WPC5, whole entry: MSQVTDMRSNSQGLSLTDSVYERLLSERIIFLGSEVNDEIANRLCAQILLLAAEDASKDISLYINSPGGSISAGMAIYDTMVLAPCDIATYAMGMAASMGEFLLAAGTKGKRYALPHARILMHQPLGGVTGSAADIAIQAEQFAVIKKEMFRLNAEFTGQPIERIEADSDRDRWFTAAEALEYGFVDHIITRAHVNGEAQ
UniProt P9WPC3, whole entry partner: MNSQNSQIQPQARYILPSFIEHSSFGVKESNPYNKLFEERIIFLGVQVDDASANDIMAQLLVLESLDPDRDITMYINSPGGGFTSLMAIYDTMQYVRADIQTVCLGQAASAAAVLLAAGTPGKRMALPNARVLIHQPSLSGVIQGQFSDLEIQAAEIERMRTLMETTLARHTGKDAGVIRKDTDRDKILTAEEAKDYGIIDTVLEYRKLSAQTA
UniProt I6X8D2, whole entry: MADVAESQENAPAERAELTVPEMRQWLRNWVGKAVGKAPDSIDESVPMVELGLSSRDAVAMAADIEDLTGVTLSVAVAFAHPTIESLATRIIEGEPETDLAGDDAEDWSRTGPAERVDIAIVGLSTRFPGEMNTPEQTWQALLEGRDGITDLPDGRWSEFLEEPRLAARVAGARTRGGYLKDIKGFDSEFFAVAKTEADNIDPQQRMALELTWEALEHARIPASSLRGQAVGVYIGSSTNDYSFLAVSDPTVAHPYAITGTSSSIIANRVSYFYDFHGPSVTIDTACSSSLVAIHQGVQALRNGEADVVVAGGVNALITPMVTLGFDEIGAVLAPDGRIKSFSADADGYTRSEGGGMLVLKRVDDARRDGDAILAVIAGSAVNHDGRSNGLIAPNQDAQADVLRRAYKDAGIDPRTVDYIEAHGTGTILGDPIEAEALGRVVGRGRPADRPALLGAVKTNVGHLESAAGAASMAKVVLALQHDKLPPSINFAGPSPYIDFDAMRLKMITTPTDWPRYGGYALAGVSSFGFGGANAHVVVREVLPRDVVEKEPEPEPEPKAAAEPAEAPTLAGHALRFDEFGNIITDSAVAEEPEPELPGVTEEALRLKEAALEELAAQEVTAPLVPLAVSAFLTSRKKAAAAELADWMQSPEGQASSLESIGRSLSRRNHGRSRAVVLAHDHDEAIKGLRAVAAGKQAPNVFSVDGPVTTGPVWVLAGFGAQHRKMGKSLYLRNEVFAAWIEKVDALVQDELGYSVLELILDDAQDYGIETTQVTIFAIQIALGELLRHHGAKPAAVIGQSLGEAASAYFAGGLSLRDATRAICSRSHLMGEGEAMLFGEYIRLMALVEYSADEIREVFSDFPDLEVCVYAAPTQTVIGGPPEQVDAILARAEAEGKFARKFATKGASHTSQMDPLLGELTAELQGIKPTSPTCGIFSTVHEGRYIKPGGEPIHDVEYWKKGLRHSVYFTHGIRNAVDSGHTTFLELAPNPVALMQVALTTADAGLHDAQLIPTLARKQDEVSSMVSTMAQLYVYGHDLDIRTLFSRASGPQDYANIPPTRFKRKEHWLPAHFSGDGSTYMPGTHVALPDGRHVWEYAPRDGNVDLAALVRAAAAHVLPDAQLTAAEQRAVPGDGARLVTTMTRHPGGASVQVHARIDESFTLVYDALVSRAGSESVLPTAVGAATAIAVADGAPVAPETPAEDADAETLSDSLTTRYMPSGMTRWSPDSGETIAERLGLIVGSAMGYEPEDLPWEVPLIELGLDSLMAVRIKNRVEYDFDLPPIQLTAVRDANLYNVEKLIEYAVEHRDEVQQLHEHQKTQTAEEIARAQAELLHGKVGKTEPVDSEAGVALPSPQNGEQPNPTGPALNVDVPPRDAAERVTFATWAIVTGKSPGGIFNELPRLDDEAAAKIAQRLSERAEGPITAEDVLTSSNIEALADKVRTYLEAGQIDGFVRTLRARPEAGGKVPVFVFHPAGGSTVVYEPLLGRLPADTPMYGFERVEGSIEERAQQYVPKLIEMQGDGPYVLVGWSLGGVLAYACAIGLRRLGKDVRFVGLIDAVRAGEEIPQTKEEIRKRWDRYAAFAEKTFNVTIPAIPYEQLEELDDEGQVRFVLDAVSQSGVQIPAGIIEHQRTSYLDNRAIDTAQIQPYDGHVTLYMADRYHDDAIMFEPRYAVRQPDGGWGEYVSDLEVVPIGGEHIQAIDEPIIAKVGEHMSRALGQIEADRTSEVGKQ

Values are the deposited “Percent Effect”, in %. The controls that fix the scale are not given in the record; negative values are as filed. The compounds are a random part of those screened. A dash means the value is not listed here; it may have been measured.

ClpP1P2: 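ClpP1P2, Mycobacterium tuberculosis (UniProt P9WPC5 and UniProt P9WPC3). Protease assay of ClpP1P2, read by the AMC dye that it sets free. Compounds at 50 µM. Higher reads as stronger inhibition, judged from the few compounds that gave an IC50. Most other retested compounds had strongly negative values. Size under these conditions: about 69,000 compounds, about 10 of them at 50% or above in at least one test.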
Pks13 thioesterase: 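Enzyme assay of the thioesterase domain of polyketide synthase 13; the read-out is not stated. Target: Polyketide synthase Pks13, Mycobacterium tuberculosis (UniProt I6X8D2). Compounds at 30 µM. The record gives no direction; the compounds picked for IC50 retests had high values, so higher reads as stronger inhibition. Size under these conditions: about 67,000 compounds, about 300 of them at 50% or above in at least one test.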

SMILES	ClpP1P2	Pks13 thioesterase
COC(=O)CN(Cc1ccccc1C)C(=O)C1CCC1	-5.512	-13.79
CC(C)Sc1ccc(C(C)NC(=O)Cn2cccnc2=O)cc1 (stereo unspecified)	-3.842	-24.11
O=C1O[C@@H]2CN(c3ccc(Cl)cn3)C[C@@H]2N1CCc1ccc(F)cc1	-10.45	-18.61
CCn1ncc2c1NC(=O)CC2c1cnc(-c2ccccn2)nc1 (stereo unspecified)	-3.199	-22.43
O=C(NC1CCC1)c1n[nH]c2c1CNCC2	-1.082	-10.65
CC(C)NC(=O)NC[C@H]1OC[C@@H](NCc2ccccc2F)[C@@H]1O	-11.96	-15.37
Cc1cncc(C2CCCN(C(=O)c3cccn3C)C2)n1 (stereo unspecified)	7.057	-19.56
CCN1CC2(CCN(C(=O)N(C)C)CC2)COc2ccccc2S1(=O)=O	6.199	-8.094
COc1cccc([S+]([O-])CC(=O)NCc2cc(F)cc(F)c2)c1 (stereo unspecified)	-4.385	-13.82
COc1ccc2c(c1)C(C(=O)N(C)CCCc1cnn(C)c1)CC(=O)N2 (stereo unspecified)	-5.719	-10.12
O=C(N1CCOCC1)N1CCCC2(CCCNC2)C1 (stereo unspecified)	-8.068	-21.38
CCCc1nnc(NC2CCN(C3CCCC3)CC2)o1	-3.931	-42.7
CCc1nnc(Nc2cccc(C3CCN(S(=O)(=O)N(C)C)CC3)n2)s1	-1.509	-5.073
CC1c2ncc(Cn3cncn3)n2CCN1CC1CCOCC1 (stereo unspecified)	-6.182	1.646
CCS(=O)(=O)CCCOc1nc(-c2ccccc2Cl)no1	-0.4681	-0.3706
Cc1cn[nH]c1C1CCCCN1C(=O)CCc1ccc(F)cc1 (stereo unspecified)	-4.806	-2.714
CCc1nnc(CN(CC)C(=O)C2CC(=O)N(C(C)(C)C)C2)o1 (stereo unspecified)	-8.828	-5.766
CCC(OC)C(=O)NCc1cc2n(n1)CCCN(C1CCCCC1)C2 (stereo unspecified)	-1.073	9.351
Cc1ccc(C(CNCc2ncc[nH]2)N2CCOCC2)s1 (stereo unspecified)	-3.579	-29.42
CCc1ncc(CN(C)C2CCN(c3sccc3C#N)C2=O)s1 (stereo unspecified)	-3.717	-35.16
Cc1nn(C)c(C)c1C1CCCN1C(=O)c1ccc(N(C)C)nc1 (stereo unspecified)	-20.58	-8.219
Cc1cc(C)n(C2CCCN(C(=O)c3ccnc(N(C)C)c3)C2)n1 (stereo unspecified)	-16.65	1.401
Cc1noc(C)c1NS(=O)(=O)c1cc(C(=O)O)cc(Cl)c1Cl	-9.948	-6.438
CC(C)(CO)Nc1cc(-c2ccccc2)ncn1	-2.61	4.214
CNc1nc(C2CCCN(C(=O)C(C)C)C2)nc2c1CN(C)CC2 (stereo unspecified)	1.386	-9.752
CCS(=O)(=O)NC[C@]12COC[C@H]1CN(Cc1cccnc1)C2	2.304	23.29
Cc1c(Br)cccc1S(=O)(=O)NCc1ccnn1C	-6.174	-36.77
O=C(NCCn1cccc1)C1CCN(C2CCCCC2)CC1	-10.06	2.256
CS(=O)(=O)N1CCC(c2nc3ccc(-c4cccc(F)c4)cn3n2)CC1	-10.6	9.468
COc1ccc2c(c1)OCC(CNC(=O)c1ccncc1)C2 (stereo unspecified)	-4.19	-2.334
Cc1cccc(CNC(=O)C2CCC(=O)N(Cc3ccccc3F)C2)n1 (stereo unspecified)	-31.2	-20.39
Cc1nc(CN2CCc3nc(NC(C)C)nc(C)c3C2)cs1	3.512	-35.99
CC(C)CN1CCC(c2nnc(CN3CCCC3)n2C2CC2)CC1	1.633	-25.43
O=C(CCc1nc(Cl)n[nH]1)N[C@H]1CC[C@H]1NC1Cc2ccccc2C1	-1.734	-
CC1(C)CC(N(Cc2cccnc2)Cc2cccnc2)CC(C)(C)N1	-10.78	9.731
CCCc1noc(C2CC(=O)N(C(C)(C)C)C2)n1 (stereo unspecified)	-15.85	-5.949
CCc1nn(C)c(CC)c1CNC(=O)Nc1cccc2c1CCN2C	-3.041	-10.13
CNC(=O)N1CCc2cc(C(=O)NCC3CC3)c(NC(C)C)nc2CC1	-168.7	51.55
CCCc1cnc(C)nc1NC(C)Cc1cnccn1 (stereo unspecified)	-11.38	-18.14
COc1cccc(C(=O)N2CCN(CC(O)c3ccccc3)CC2)c1 (stereo unspecified)	0.803	-19.37
CCn1nc(C)cc1NC(=O)CCn1nc(C)c2ccccc21	-13.76	-13.53
O=C(CCN1CCCC1c1cccs1)N1CCc2sccc2C1 (stereo unspecified)	-10.59	-6.406
Cc1cc2n(n1)CC(CNC1CCN(CCc3ccccc3)CC1)CN2 (stereo unspecified)	-3.336	2.25
Cc1ccc(N2CCc3c(CN(C)Cc4ccco4)cncc3C2)nn1	-22.75	-14.95
CN(C)CCN1CCO[C@H]2CN(Cc3ccccn3)C[C@H]21	1.871	-23.76
COc1c(C2CCCN2C(=O)c2ccc3cc[nH]c3c2)c(C)nn1C (stereo unspecified)	6.528	-19.55
Cn1nnc2cc(C(=O)N3CCCC3Cc3ccccc3)ccc21 (stereo unspecified)	-8.865	-12.83
COc1ccc(C[C@H]2CN(c3nnc(C)s3)CC[C@@H]2OC)cc1	-5.485	-80.28
O=C(COC1CCCCC1)NS(=O)(=O)c1ccc2c(c1)OCCCO2	0.2561	-11.69
CCc1nc(N2CCCC(O)(CO)CC2)ncc1C (stereo unspecified)	3.314	-7.995
Cc1sc(CN)nc1-c1ccc(Cl)cc1	9.494	-25.09
CN(C)CCn1c2c(ccc1=O)CCN(Cc1cnn(C)c1)CC2	4.917	7.274
Cc1ccc(C2CSCCN2C(=O)c2ccc(C(N)=O)cc2)o1 (stereo unspecified)	-7.204	-7.704
OCc1cc2ccccc2nc1NCC1CC1	-0.9516	4.872
CC(=O)N1CCCc2cc(Nc3nccn(C)c3=O)ccc21	4.387	-

Some entries from above, unchanged:

| SMILES | ClpP1P2 | Pks13 thioesterase |
|---|---|---|
| `Cc1c(Br)cccc1S(=O)(=O)NCc1ccnn1C` | -6.174 | -36.77 |
| `Cc1nc(CN2CCc3nc(NC(C)C)nc(C)c3C2)cs1` | 3.512 | -35.99 |
| `CCc1nn(C)c(CC)c1CNC(=O)Nc1cccc2c1CCN2C` | -3.041 | -10.13 |
| `CCCc1cnc(C)nc1NC(C)Cc1cnccn1` (stereo unspecified) | -11.38 | -18.14 |
| `Cc1cccc(CNC(=O)C2CCC(=O)N(Cc3ccccc3F)C2)n1` (stereo unspecified) | -31.2 | -20.39 |
| `CC(C)NC(=O)NC[C@H]1OC[C@@H](NCc2ccccc2F)[C@@H]1O` | -11.96 | -15.37 |

From ChEMBL document CHEMBL3988442, “University of Dundee, Small-Polar-MMV Screening Library” (2021).